Experimental data as given in PubChem BioAssay AID485353 (National Center for Advancing Translational Sciences (NCATS), 2010).
In all, about 330,000 compounds went through this assay and about 610 (0.18%) were called active. The shares of active, inactive and inconclusive entries below differ from those in the screen. Calls come from the whole dose curve. Potencies of inconclusive entries are doubtful fits and often do not repeat.

test: qHTS of Yeast-based Assay for SARS-CoV PLP; note: nearly all actives have a fitted effect of over 55% in size; for activity, positive = growth rescue: 0% is about no effect; details: S. cerevisiae expressing SARS-CoV PLpro; Potency: growth rescue; activity, positive = growth rescue: at 32.9 µM (top of the series)
Potency is the fitted concentration of half-maximal effect.

| Compound | Potency | activity, positive = growth rescue |
| --- | --- | --- |
| CC(C)c1ccccc1NC(=S)NC(C)c1ccccc1 (stereo not given) | inconclusive: 17.8 µM [activator, single point] | – |
| O=C(OCC(=O)N1CCN(c2ccccc2)CC1)c1cccc(Cl)c1 | inconclusive: 22.4 µM [activator, single point] | – |
| Cc1ccc(C2/C(=C(/O)c3cnn(-c4ccccc4)c3C)C(=O)C(=O)N2CCN2CCOCC2)o1 (stereo not given) | – | inactive: 3.46% |
| Cc1ccc(C)c(NC(=S)NCc2cccs2)c1 | inconclusive: 7.94 µM [activator, partial curve] | – |
| Cc1nc(-c2ccc(NC(=O)c3ccccc3)cc2)cs1 | – | inactive: 5.72% |
| CN(C)c1nc(SCCOC(=O)Nc2ccccc2)nc(N(C)C)n1 | inconclusive: 20 µM [activator, single point] | – |
| S=c1nc(-c2ccccc2Br)[nH][nH]1 | inconclusive: 6.31 µM [activator, partial curve] | – |
| c1ccc2c(c1)CC(N1CCCCC1)c1ccccc1N2 (stereo not given) | inconclusive: 3.16 µM [activator, single point] | – |
| CC1Cc2ccccc2N1C(=O)CSc1ncc(-c2ccc(F)cc2)n1C (stereo not given) | inconclusive: 0.355 µM [activator, partial curve, poor fit] | – |
| O=C(O)/C=C/C(=O)Nc1ccccc1-c1ccccc1 | – | inactive: -36.5% |
| COc1ccc(C(=O)N2CCC(C(=O)Nc3ccc4c(c3)OCO4)CC2)cc1 | inconclusive: 4.47 µM [activator, partial curve] | – |
| COc1cccc(/C=N/NC(=O)c2cc3cc([N+](=O)[O-])ccc3s2)c1O | inconclusive: 14.1 µM [activator, single point] | – |
| Cc1cc(NC(=O)Cn2c(=O)oc3ccc(Cl)cc32)no1 | inconclusive: 17.8 µM [activator, single point] | – |
| CCn1c(COc2cccc(OC)c2)nnc1SCC(=O)Nc1ccccc1C(=O)OC | inconclusive: 3.98 µM [activator, single point] | – |
| COc1cc(OC)cc(C(=O)N[C@H](C(=O)OCc2cc(=O)oc3cc(C)ccc23)C(C)C)c1 | – | inactive: 8.97% |
| Cc1cccc(/C=N/NC(=O)c2c(-c3ccccc3)noc2C)c1O | inconclusive: 10 µM [activator, partial curve] | – |
| COC(=O)C(C)n1nc(C)n(-c2ccc(C)cc2)c1=O (stereo not given) | inconclusive: 0.355 µM [activator, full curve, poor fit] | – |
| COc1ccc([C@H]2CC(=O)C=C(c3ccnc4ccc(Cl)cc34)C2)cc1 | – | inactive: 5.31% |
| C/C(=N\OCc1nc2ccccc2c(=O)n1/N=C/c1cc([N+](=O)[O-])ccc1O)c1ccccc1 | inconclusive: 3.16 µM [activator, full curve] | – |
| COc1ccc(NC(=O)c2ccc3c(=O)n(CC4CCCO4)c(=S)[nH]c3c2)c(OC)c1 (stereo not given) | – | inactive: -9.07% |
| CCN1CCN(CC2COc3ccccc3O2)CC1 (stereo not given) | – | inactive: -0.159% |
| CCOc1cccc(/C=N/NC(=O)c2cc(C3CC3)[nH]n2)c1O | inconclusive: 20 µM [activator, single point] | – |
| COc1cc(-c2nnc(CSc3nnc(Nc4ccc(Oc5ccccc5)cc4)s3)o2)cc(OC)c1OC | – | inactive: 15.6% |
| Cc1ccc(-n2c(-c3cccc(C)c3)n[nH]c2=S)cc1 | inconclusive: 10 µM [activator, partial curve] | – |

Single records, from the list above:
`COC(=O)C(C)n1nc(C)n(-c2ccc(C)cc2)c1=O` (stereo not given) as listed: Potency: inconclusive: 0.355 µM [activator, full curve, poor fit]
`COc1ccc([C@H]2CC(=O)C=C(c3ccnc4ccc(Cl)cc34)C2)cc1` as listed: activity, positive = growth rescue: inactive: 5.31%
`COc1cc(-c2nnc(CSc3nnc(Nc4ccc(Oc5ccccc5)cc4)s3)o2)cc(OC)c1OC` as listed: activity, positive = growth rescue: inactive: 15.6%
`COc1cccc(/C=N/NC(=O)c2cc3cc([N+](=O)[O-])ccc3s2)c1O` as listed: Potency: inconclusive: 14.1 µM [activator, single point]

Later entries

| Compound | Potency | activity, positive = growth rescue |
| --- | --- | --- |
| O=C(O)c1ccc(S(=O)(=O)N[C@H](Cc2ccc([N+](=O)[O-])cc2)C(=O)O)cc1 | active: 2.24 µM | – |
| CS(=O)(=O)N(CC(=O)N1CCCC1)c1ccc2c(c1)OCCO2 | inconclusive: 2.82 µM [activator, partial curve] | – |
| CCO[C@H]1OC(C(=O)NCc2nc3ccccc3[nH]2)=C[C@@H](C2CCCCC2)[C@@H]1CCCO | – | inactive: -0.037% |
| COC(=O)C1=C(C)C(c2ccc(OC)cc2OC)NC(=O)N1 (stereo not given) | inconclusive: 3.98 µM [activator, single point] | – |
| CCOc1ccc(NS(=O)(=O)c2ccc(C(=O)NCCN3CCOCC3)cc2)cc1 | – | inactive: 1.27% |
| O=C(O)COc1cccc(NC(=O)c2ccccc2)c1 | inconclusive: 4.47 µM [activator, single point] | – |
| Cc1nc(C#N)c(N/N=C/c2c(F)cccc2Cl)o1 | active: 11.2 µM | – |
| O=C(Cn1nc(Cl)nc1Cl)c1ccc2c(c1)OCCO2 | active: 11.2 µM | – |
| COC(=O)C1=C(C)N=C2SC(C#N)=C(N)N2C1c1ccc(OCc2ccccc2)cc1 (stereo not given) | – | inactive: -11.7% |
| COc1ccc(CCN2CC(C(=O)NCCc3cnn(C)c3)CCC2=O)cc1 (stereo not given) | – | inactive: 6.15% |
| COc1ccc(Nc2nc(-c3ccccc3)nc3ccccc23)cc1 | – | inactive: -10.9% |
| OC1(c2ccc(Cl)cc2)CN(c2ccccc2)C2=[N+]1CCS2 (stereo not given) | – | inactive: 3.33% |
| Cc1ccc2c(COC(=O)CNC(=O)c3ccccc3)cc(=O)oc2c1 | inconclusive: 1.78 µM [activator, full curve, poor fit] | – |
| CCCOc1ccc(Cc2nn3c(=O)/c(=C/c4ccco4)sc3nc2=O)cc1 | inconclusive: 20 µM [activator, single point] | – |
| CN(C)C(CNC(=O)CN1C(=O)NC2(CCc3ccccc32)C1=O)c1ccco1 (stereo not given) | inconclusive: 20 µM [activator, single point] | – |
| NC(=O)Nn1c(CCC(=O)O)ccc1-c1ccc(F)cc1 | inconclusive: 2 µM [activator, partial curve] | – |
| Cc1c(NC(=S)NC(=O)C(C)(C)C)cccc1[N+](=O)[O-] | inconclusive: 22.4 µM [activator, partial curve] | – |
| CCOC(=O)c1c(NC(=O)C(=O)N/N=C/c2ccccc2O)sc2c1CCCCC2 | inconclusive: 17.8 µM [activator, single point] | – |
| CCC(C)c1ccc(NC(=S)NCc2cccnc2)cc1 (stereo not given) | inconclusive: 22.4 µM [activator, single point] | – |
| NC(=O)[C@@H]1CCCN1C(=O)c1cc(COc2ccc(F)cc2F)on1 | inconclusive: 3.16 µM [activator, single point] | – |
| Cc1ccc(NC(=S)Nc2ccccn2)cc1C | – | inactive: 1.9% |
| Cc1ccc(C(=O)Nc2sc3c(c2C(=O)NCc2ccco2)CCCC3)cc1 | – | inactive: 11.1% |
| COc1ccc(N(CC(=O)NC2CC3CCC2C3)S(=O)(=O)c2ccccc2)cc1Cl (stereo not given) | inconclusive: 20 µM [activator, single point] | – |
| Cc1[nH]n(-c2ccccc2)c(=O)c1/C=N/NC(=O)COc1ccccc1[N+](=O)[O-] | active: 14.1 µM | – |

Some of the entries above, reformatted.
Compound | Potency | activity, positive = growth rescue
NC(=O)[C@@H]1CCCN1C(=O)c1cc(COc2ccc(F)cc2F)on1 | inconclusive: 3.16 µM [activator, single point] | –
Cc1ccc(NC(=S)Nc2ccccn2)cc1C | – | inactive: 1.9%

Further entries

| Compound | Potency | activity, positive = growth rescue |
| --- | --- | --- |
| COc1ccc(O[C@H]2C=C[C@@H](c3ccccc3)O[C@@H]2COC(=O)CCC(C)=NO[C@@H]2O[C@H](COC(C)=O)[C@@H](OC(C)=O)[C@H](OC(C)=O)[C@H]2OC(C)=O)cc1 | – | inactive: 3.79% |
| CN1CCN(C(=O)C2CCCN(S(=O)(=O)c3ccccc3)C2)CC1 (stereo not given) | inconclusive: 4.47 µM [activator, single point] | – |
| COc1ccc(C(=O)Oc2cc(/C=N/NC(N)=S)ccc2OC)cc1 | inconclusive: 12.6 µM [activator, partial curve] | – |
| O=S(=O)(O)c1cccc2c(N=Nc3ccc(O)c4ncccc34)cccc12 | inconclusive: 17.8 µM [activator, single point] | – |
| Cc1cc(NS(=O)(=O)c2ccc(NC(=O)/C=C/c3ccc(Br)cc3)cc2)no1 | inconclusive: 17.8 µM [activator, single point] | – |
| CCS(=O)(=O)c1ccc(OC)c(N=Nc2ccc(O)c3ncccc23)c1 | inconclusive: 2.51 µM [activator, full curve] | – |
| Cc1c(C(=O)OCC2CCCO2)[nH]c2c1C(=O)CC(c1ccco1)C2 (stereo not given) | inconclusive: 3.98 µM [activator, single point] | – |
| CN(CCOc1ccc(Cl)cc1)C(=O)c1cc(-c2ccco2)nc2ccccc12 | – | inactive: 4.05% |
| O=C(CSc1nnnn1-c1ccc(F)cc1)Nc1nc2ccccc2s1 | inconclusive: 20 µM [activator, single point] | – |
| CCn1cc(C(=O)NC2CC(C)(C)Cc3c2cnn3-c2cccc(F)c2)cn1 (stereo not given) | inconclusive: 3.98 µM [activator, single point] | – |
| CC(C)NC(=S)NC(=O)/C=C/c1ccc(F)cc1 | inconclusive: 4.47 µM [activator, full curve] | – |
| O=C(NCc1ccc(F)cc1F)Nc1cnccc1C(F)(F)F | – | inactive: -0.976% |
| COC(=O)c1ccc(CSc2nnc(CNC(=O)c3ccc(OC)cc3)o2)o1 | inconclusive: 3.16 µM [activator, single point] | – |
| Cc1cccc(C)c1NC(=O)CSc1nnc(NC(=O)c2ccccc2C(=O)O)s1 | – | inactive: 0.009% |
| COc1ccc2[nH]c(=O)c(CN(CC3CCCO3)C(=S)Nc3ccccc3)cc2c1 (stereo not given) | – | inactive: -0.625% |
| COc1ccc(/C=C/C(=O)NC(=S)NNC(=O)c2ccco2)cc1OC | – | inactive: 0.709% |
| O=C(O)[C@H]1CCCC[C@H]1C(=O)NCCNC(=O)[C@@H]1CCCC[C@@H]1C(=O)O | inconclusive: 2.82 µM [activator, single point] | – |
| CC1=NN(c2ccc(C(=O)OC(C)C)cc2)C(=O)/C1=C\C=C\c1ccco1 | inconclusive: 14.1 µM [activator, partial curve] | – |
| Cc1[nH]c(=O)[nH]c(=O)c1S(=O)(=O)NCC12CC3CC(CC(C3)C1)C2 | inconclusive: 4.47 µM [activator, single point] | – |
| CN1/C(=C\C(=O)CSc2nncn2C)C(C)(C)c2ccccc21 | inconclusive: 2 µM [activator, single point] | – |
| CCN(CC)c1ccc(C(=O)N/N=C(\C)c2ccc(OC)c(OC)c2)cc1 | – | inactive: -0.0564% |
| C[C@@H]1C[C@H]2[C@@H]3CCC4=CC(=O)C=C[C@]4(C)[C@@]3(F)[C@@H](O)C[C@]2(C)[C@H]1C(=O)CO | active: 10 µM | – |
